# In the supplement of paper PMC7666118:
# Chains of the proteins cited; added tags and fusions are not shown. Lines headed by an entry give the natural chain unless they say otherwise; changes in a name come on top.
# UniProt Q9NWH9: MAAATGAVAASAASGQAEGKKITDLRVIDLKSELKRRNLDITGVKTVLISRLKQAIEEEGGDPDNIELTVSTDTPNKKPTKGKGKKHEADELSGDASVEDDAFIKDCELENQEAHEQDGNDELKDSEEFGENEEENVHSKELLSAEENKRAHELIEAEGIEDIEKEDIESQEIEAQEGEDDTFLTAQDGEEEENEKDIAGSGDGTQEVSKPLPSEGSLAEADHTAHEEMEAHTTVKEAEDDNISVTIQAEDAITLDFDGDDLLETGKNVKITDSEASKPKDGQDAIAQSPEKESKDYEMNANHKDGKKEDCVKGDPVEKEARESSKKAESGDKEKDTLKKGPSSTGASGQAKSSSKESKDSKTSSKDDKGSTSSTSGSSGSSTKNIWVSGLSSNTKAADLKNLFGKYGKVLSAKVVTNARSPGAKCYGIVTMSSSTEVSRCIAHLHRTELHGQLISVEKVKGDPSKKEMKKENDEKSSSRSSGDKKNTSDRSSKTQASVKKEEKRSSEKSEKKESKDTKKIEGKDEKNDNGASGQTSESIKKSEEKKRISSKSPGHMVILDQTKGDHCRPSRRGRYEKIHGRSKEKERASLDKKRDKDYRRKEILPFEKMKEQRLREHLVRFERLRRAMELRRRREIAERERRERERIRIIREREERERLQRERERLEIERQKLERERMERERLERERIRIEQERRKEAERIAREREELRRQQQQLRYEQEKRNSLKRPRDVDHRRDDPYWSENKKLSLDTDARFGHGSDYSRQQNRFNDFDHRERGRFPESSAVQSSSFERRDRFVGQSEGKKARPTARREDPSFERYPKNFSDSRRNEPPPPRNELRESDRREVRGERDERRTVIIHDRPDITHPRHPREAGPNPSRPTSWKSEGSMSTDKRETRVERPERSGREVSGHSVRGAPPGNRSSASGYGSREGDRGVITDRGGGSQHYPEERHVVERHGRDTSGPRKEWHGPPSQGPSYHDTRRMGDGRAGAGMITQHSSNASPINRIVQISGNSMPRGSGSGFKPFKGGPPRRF
# The list shows a part of the results.
# Target: SLTM (UniProt Q9NWH9)
# Experiment: dose-dependent thermal stabilisation call (2D-TPP, DLPTP, 10% FDR) (binary (1 = stabilised)); higher = stabilised by the compound
# Conditions: system: HL-60 intact cells; concentration range 0.04-10 µM
# Procedure: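 2D thermal proteome profiling in intact HL-60 cells treated with BRD-3811 (0, 0.04, 0.29, 2, 10 uM) for 90 min at 37 C, then heated 3 min at one of 12 temperatures (42-63.9 C). Soluble protein was quantified by TMT10 MS. The value is the DLPTP call of the paper: dose-dependent thermal stabilisation over all temperatures at 10% FDR (F-test of a dose-response against a flat model); one experiment, one call per tested protein.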
row,SMILES,dose-dependent thermal stabilisation call
1,COc1ccc(Cn2ccc3cc(C)c(C(=O)NO)cc32)cc1,inactive: 0
